According to patent publication US4018801A, “Substituted oxirane compounds” (The Dow Chemical Company, priority 1975, dated 1977):
For at least one compound, name, drawing or mass did not settle the structure.

Key:
Bacillus subtilis = assay: Control of fungal plants on nutrient agar; assay type: cell-based; conditions: 100 parts per million by weight
Method: Separate acetone compositions containing 100 and 500 parts, respectively, of each of 2-(p-nitrophenyl)- 2-(2,2,2-trichloroethyl)oxirane and 2-(m-nitrophenyl)- 2-(2,2,2-trichloroethyl)oxirane compounds per million parts by weight of ultimate mixture were prepared by dissolving a pre-determined amount of each of the above compounds in acetone to give the desired concentrations. The solutions were dispersed in melted nutrient agar to produce culture media for fungal plants. The agar solutions were poured into petri dishes and allowed to solidify. The solidified agar surface in each petri dish was inoculated with one species of a fungal plant; the plants employed being Staphylococcus aureus, Candida albicans, Trichophton mentagrophytes, Bacillus subtilis, Aspergillus terreus, Candida pelliculosa, Pullularia pullulans, Mycobacterium phlei, Cephaloascus fragans and Aerobacter aerogenes.
The inoculation was carried out by applying droplets of a solution containing the fungal plants to the agar surfaces. The inoculated petri dishes were then incubated for an appropriate period of time and under conditions conducive to the growth of the fungal plants involved.
After incubation, the petri dishes were examined to determine the degree of control of the fungal plants.

Aerobacter aerogenes = assay: Control of fungal plants on nutrient agar; assay type: cell-based; conditions: 100 parts per million by weight

O=[N+]([O-])c1ccc(C2(CC(Cl)(Cl)Cl)CO2)cc1 (centres unmarked) [Example 1, 2-(p-nitrophenyl)-2-(2,2,2-trichloroethyl)oxirane] was tested, and the “degree of control of the fungal plants” value (Bacillus subtilis) was “complete control and kill” and the “degree of control of the fungal plants” value (Aerobacter aerogenes) was “complete control and kill”.
